Source: article PMC8529007
Results are given in words; binding and its absence hold for the method and conditions named. Binding seen in cells or lysates may run through a third protein. Some binding calls cover weakened binding; strength is not graded here.

Sequences of proteins named here, by UniProt entry; tags and fusion partners are left off. Residues count along the entry.
UniProt P05107, residues 23-769: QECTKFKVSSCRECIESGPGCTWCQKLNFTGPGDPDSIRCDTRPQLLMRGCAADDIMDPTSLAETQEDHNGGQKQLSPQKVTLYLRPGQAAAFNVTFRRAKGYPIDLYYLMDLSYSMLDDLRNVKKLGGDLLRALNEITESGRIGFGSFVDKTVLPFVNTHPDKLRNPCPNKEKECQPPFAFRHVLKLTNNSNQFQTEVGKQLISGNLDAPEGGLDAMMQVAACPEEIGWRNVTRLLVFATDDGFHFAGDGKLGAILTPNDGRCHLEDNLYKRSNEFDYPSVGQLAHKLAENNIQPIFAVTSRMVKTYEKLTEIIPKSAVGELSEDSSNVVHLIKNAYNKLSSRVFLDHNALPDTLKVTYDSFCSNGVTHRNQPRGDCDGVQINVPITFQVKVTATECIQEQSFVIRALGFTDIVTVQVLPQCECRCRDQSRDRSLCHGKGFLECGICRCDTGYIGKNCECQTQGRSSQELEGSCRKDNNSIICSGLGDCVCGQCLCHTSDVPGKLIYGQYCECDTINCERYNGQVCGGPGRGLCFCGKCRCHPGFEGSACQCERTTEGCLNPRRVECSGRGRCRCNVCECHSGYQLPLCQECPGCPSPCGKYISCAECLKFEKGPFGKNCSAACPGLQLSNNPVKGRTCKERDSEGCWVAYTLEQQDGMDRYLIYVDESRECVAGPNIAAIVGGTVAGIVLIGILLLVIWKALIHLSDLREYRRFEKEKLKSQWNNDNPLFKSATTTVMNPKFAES
UniProt P11142: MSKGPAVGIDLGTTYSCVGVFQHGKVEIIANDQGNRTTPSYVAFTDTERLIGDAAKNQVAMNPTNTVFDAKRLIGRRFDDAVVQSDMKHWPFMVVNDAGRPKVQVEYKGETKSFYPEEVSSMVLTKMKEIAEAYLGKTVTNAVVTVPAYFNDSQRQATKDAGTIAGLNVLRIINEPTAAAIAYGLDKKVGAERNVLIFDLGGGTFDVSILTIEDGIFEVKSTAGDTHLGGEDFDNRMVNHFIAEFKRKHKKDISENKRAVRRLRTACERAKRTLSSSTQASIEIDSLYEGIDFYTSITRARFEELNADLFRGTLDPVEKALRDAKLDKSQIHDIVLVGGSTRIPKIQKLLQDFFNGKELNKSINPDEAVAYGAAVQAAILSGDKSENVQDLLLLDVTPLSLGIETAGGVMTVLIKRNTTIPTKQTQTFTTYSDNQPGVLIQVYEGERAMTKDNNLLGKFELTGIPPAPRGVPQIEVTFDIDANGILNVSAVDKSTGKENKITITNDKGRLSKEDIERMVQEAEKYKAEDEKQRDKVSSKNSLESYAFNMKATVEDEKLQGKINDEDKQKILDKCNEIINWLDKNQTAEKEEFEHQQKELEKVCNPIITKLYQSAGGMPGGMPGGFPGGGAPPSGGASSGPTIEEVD
UniProt P19474: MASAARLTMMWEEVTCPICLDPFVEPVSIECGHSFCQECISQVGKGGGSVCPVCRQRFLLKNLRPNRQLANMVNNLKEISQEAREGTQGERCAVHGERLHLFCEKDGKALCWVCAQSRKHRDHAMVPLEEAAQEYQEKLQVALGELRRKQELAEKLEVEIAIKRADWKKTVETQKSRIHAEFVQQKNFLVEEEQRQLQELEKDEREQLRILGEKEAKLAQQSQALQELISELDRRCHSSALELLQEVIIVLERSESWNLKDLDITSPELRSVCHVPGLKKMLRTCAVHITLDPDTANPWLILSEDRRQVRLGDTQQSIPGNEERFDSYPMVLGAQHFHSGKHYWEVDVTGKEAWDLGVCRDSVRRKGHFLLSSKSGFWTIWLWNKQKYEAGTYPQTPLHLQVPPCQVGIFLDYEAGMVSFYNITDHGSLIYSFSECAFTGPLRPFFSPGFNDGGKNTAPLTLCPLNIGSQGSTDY

Target: CD18 (integrin β2), dHL-60 cells (human (endogenous in dHL-60)) (UniProt P05107)
Experiment: co-IP; reciprocal co-IP in dHL-60 cells; Pierce Crosslink IP kit, primary antibody cross-linked to protein A/G plus agarose, precleared cytosolic fraction, overnight at 4°C

Substance | binding
Heat shock cognate 71 kDa protein (Hsc70), dHL-60 cells (from UniProt P11142 1-646) | binds
tripartite motif-containing protein 21 (TRIM21), dHL-60 cells (from UniProt P19474 1-475) | binds
